Experimental data published in patent US20020165140A1.
Results are given in words; binding and its absence hold for the method and conditions named. In cells and extracts the contact can be indirect. Some binding calls cover weakened binding; strength is not graded here.

The chains behind the UniProt entries cited, without tags or fusion partners. Where a name states a change or a piece, a line headed by the entry shows the natural chain unless it says otherwise.
UniProt P04386: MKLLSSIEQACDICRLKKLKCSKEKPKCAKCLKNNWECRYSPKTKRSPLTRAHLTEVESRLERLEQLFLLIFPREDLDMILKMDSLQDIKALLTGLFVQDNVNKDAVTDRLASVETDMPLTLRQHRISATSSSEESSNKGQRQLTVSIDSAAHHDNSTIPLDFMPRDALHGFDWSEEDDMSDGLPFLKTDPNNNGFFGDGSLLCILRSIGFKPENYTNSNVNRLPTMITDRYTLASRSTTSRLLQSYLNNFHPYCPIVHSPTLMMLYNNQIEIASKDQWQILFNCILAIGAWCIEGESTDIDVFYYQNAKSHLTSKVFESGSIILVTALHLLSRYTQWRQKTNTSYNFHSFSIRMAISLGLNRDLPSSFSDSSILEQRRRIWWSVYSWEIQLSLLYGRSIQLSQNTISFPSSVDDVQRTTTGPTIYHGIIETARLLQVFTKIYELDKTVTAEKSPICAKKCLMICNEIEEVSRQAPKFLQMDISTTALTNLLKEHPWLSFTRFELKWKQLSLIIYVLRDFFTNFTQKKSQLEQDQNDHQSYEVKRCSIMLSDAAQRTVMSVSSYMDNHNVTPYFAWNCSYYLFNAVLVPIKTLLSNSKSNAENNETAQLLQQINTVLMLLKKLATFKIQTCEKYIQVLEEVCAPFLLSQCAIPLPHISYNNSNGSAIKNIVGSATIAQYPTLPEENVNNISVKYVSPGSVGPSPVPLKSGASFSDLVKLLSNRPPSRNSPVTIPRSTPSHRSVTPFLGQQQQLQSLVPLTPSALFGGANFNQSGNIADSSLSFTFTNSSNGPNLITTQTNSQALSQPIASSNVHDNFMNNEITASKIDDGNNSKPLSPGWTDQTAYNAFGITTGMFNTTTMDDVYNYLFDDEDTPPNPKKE

Molecular target: Inhibitory PAS Domain Protein (IPAS), in vitro translated (mouse)
Assay: coimmunoprecipitation of 35S-IPAS with anti-GAL4 antibody, in vitro translated proteins

binding, binds:
GAL4-HIF-1α/1-330 (from UniProt P04386 1-147; Q16665 1-330)
GAL4-HIF-1α/1-652 (from UniProt P04386 1-147; Q16665 1-652)
GAL4-HIF-1α/1-826 (full length) (from UniProt P04386 1-147; Q16665 1-826)
